Laboratory results as given in the supplement of paper PMC3334620.
The full ranking holds about 33,000 sequences; the median of “E-score (-0.5 to 0.5)” is about -0.0059, and the highest 2% start at about 0.26. The list shows a part of the results.

target: T1, Cin5 (UniProt P40917); assay: PBM E-score (8-mer binding enrichment) (E-score (-0.5 to 0.5)); higher = stronger / more preferred TF binding; settings: protein concentration: 100 nM; construct: GST-full length
T1 sequence: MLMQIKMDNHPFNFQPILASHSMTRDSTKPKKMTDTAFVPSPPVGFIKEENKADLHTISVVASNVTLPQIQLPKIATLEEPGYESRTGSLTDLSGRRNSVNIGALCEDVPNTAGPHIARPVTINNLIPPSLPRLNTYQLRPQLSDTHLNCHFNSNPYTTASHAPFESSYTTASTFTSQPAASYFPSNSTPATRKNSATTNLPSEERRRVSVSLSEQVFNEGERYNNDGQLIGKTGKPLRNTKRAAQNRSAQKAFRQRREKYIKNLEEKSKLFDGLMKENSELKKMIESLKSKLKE
In short: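 Universal all-10-mer Agilent arrays, double-stranded by primer extension on fresh or once-stripped slides, were probed with about 100-200 nM GST-tagged yeast transcription factors made by PURExpress. Fluorescent anti-GST detected bound protein, and masliner normalised the scans. E-scores from the Universal PBM Analysis Suite were given to each ungapped eight-base word pooled with its reverse complement.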

Sequence	PBM E-score
CTCAATCC	0.0626
GGCGACTA	-0.123
TAGCCTCA	-0.0491
ACGCCAGC	-0.155
ATTACCGG	-0.0367
TCTAGTAA	0.205
CATCCTGG	0.149
ATGGATGG	0.011
CGGCTCGA	0.0213
ATTAGCAG	0.0842
CCATTGGC	-0.129
AGTTTCGA	-0.054
AGACCTGG	-0.0148
TCATTAGA	0.00334
TCGCGCCA	-0.0143
ATTACTAC	0.145
ACAGCCGT	-0.0791
CGTAGGAA	-0.118
AAGTTATA	0.0673
ATGCTAGA	-0.138
ACCGAACC	-0.213
GGCGTATA	-0.0201
ACAAAGCG	0.0796
GATTAACA	0.252
ACGGAGAC	0.031

Sequence	PBM E-score
GCTAGCGA	-0.0157
TACCTACA	0.103
AACTTTCC	0.133
ACTAACCG	-0.058
ATAAGAAA	0.156
ACCCGAGT	0.0384
TAGTCGGA	0.0932
CTAACTCC	-0.0985
TTATCGAA	0.0654
ATCGTAGA	-0.0908
AACGAGAA	0.171
AACGAAAA	0.201
AGGTGGTG	-0.0654
CTATAGAA	-0.0388
GATGATCC	0.0125
CCGGAGAG	-0.166
CTAACCGC	-0.16
ATGCTTTC	0.155
GGTATTTA	0.0824
AAAAGAAG	0.0481
GAACTTGA	0.0475
ACGGACCG	-0.227
ATTTCCCC	0.0813
GATGCACA	-0.00351
GTTGTCGA	-0.0513

Single values from the entries so far.
TACCTACA – PBM E-score: 0.103
GGTATTTA – PBM E-score: 0.0824
ATGCTTTC – PBM E-score: 0.155
GATGATCC – PBM E-score: 0.0125
AAAAGAAG – PBM E-score: 0.0481
AGGTGGTG – PBM E-score: -0.0654

Later entries.

Sequence	PBM E-score
ATGATGTA	0.305
AGCACATA	0.0423
ACTCGGGC	-0.124
ATGCCTAA	-0.153
CTAACGTC	0.119
CGCTGGAG	-0.189
CACGAACG	-0.0149
ACCGCCTG	-0.161
ATCTACCA	0.24
GAGGACTA	-0.187
GAGTGACA	0.127
CCCACCAC	0.0747
GATGGTGA	-0.0298
AACCTCCA	-0.276
GACTGCGA	-0.0347
GCGGGAAC	-0.0927
AGGGTCGC	-0.156
GAACGAGC	0.0313
AATAAGCA	0.176
ACGCCAAG	-0.196
CCGGGCTC	-0.273
AATTATCA	0.251
AGGACACG	-0.0874
ATACGCAA	0.217
ACTGGGGA	-0.0554

Sequence	PBM E-score
AACTGGAC	-0.0445
AGTCTTGA	-0.104
AAGAAGCG	-0.153
CGATTCAC	0.00169
AACTTTCA	-0.0043
CTGACCGA	-0.11
GCTCTCCA	-0.225
AAAGAACC	-0.0517
GCAGCGTA	-0.109
AAAGGCCT	-0.313
TACTGATA	0.209
AGTCACAC	-0.0843
CTTTTTGC	0.116
AGATGTAG	0.0138
ATTTAGAC	0.00055
GCGCGTAA	0.214
CTAGTTCA	0.0732
AGATCGGC	-0.165
AGGGATAG	-0.0284
CAAGCTGG	-0.202
TAGATAGA	0.0443
TCATTCGA	0.206
ATTGCAAC	0.0487
CCAACGCC	-0.23
AAACCGGG	0.0431

Sequence	PBM E-score
AACCCCAG	0.0653
AACTGCGA	-0.103
ATTTTTCC	-0.0233
CTGGAAGA	0.0228
AACCCCCG	-0.352
AGGTGCGA	-0.15
GCTGCTGA	0.0794
AGAAAGAA	-0.00532
ACCACTTC	-0.0615
AAGCATCA	0.184
AACGCAAT	0.0777
CGGTGTAG	-0.0609
ATAGTACA	0.17
AGCTGCGC	0.00815
TAAATCTA	0.00614
AGGGAAGG	-0.293
CCATTCTC	-0.00689
ACTTGCGC	-0.0334
CGAGGTCA	-0.0217
GCTCCCGA	-0.217
CAAAATCA	0.104
TCTCAAGA	-0.0862
CGTATGGC	-0.026
GTCTTGGA	-0.112
AATAGAGC	0.153

4 entries from above, set out differently:
AACGCAAT
  PBM E-score = 0.0777
CGGTGTAG
  PBM E-score = -0.0609
ATAGTACA
  PBM E-score = 0.17
AGCTGCGC
  PBM E-score = 0.00815

Following part

Sequence	PBM E-score
GGCCCGGA	-0.219
CCGCGCCC	-0.1
AAGAGTAC	-0.0537
AGGCCGGC	-0.0664
CCCGTTAG	-0.276
ATATGAAT	0.167
ACGCAAAC	0.0223
ACCCCAGC	0.113
CCCGACAG	-0.0637
ATTACGAA	0.295
CGGCATAG	-0.0478
CCCATCAG	-0.165
TATTTTAA	0.21
ATACGTGA	0.08
ATGTCTAG	-0.0808
CCTCGGTA	-0.296
CCCAGCCA	0.025
ACGTCTTC	-0.0942
ACCTATGC	-0.0406
CGCGTTAG	-0.0956
ATGAACTA	0.179
AGGTGCTA	-0.0573
GATGGTGC	-0.359
TCCGGAGA	-0.139
ACCAACTA	0.159

Sequence	PBM E-score
CCACCTAG	-0.183
CATCATCG	0.204
AAGACCGC	-0.151
ATCTGACC	-0.0812
GAGTGATC	0.18
ATTTACGA	0.12
TAGGCAGA	0.0732
GCTGGGCA	-0.142
AGGTCCTC	-0.134
AGCGTGAA	-0.0664
ACCCTTCT	-0.139
TCCGCTAA	-0.0291
CGCCGTCA	-0.0399
CGCTGTAC	0.0257
ACATGGGC	0.0848
CACGGAAG	-0.123
GAGCGCGA	0.0856
GCTGCTCC	-0.176
AACGTAGC	-0.0954
ATGACTTA	0.149
CTGTAGAC	-0.0711
ATACTCGA	0.0784
CGCGCGCG	-0.0317
TCGCTGCA	-0.0534
CTGGATTA	0.247

Sequence	PBM E-score
TTACACAA	0.239
AATCCATC	0.111
CTGTAGCA	-0.13
GCTTAGAA	0.0547
TCGTTACA	-0.0281
AAGGCCGG	-0.0637
GGTAGGGA	0.0415
CAAAGTTA	0.0944
CAAGCGAA	0.187
TCGGCCCA	-0.163
ATTTGGGG	0.122
GGCTCGGA	-0.187
CTGGTTAC	-0.0622
ATCTTAAT	0.137
GAGGCGAC	-0.213
AGCAACTA	0.11
CCTTAGTC	-0.214
GCTTCTAA	-0.109
CGCAACAA	0.0628
CCCTTAAA	-0.151
ATTTCCAG	0.0539
CCCATATC	0.156
CGAACGCA	0.242
GCGCCTCA	0.0601
ACATTTCT	0.114

Sequence	PBM E-score
AGGGCAAC	-0.00754
CACTCAAG	-0.148
ATCGCGGC	0.129
CCATGCAG	0.0336
AACCGGCA	-0.126
AAAACAAC	-0.0722
CACATAGG	-0.0157
CAGGTTGA	-0.0949
CCTCCATC	-0.151
AAAATAAG	0.223
ATTGCTTC	-0.0228
ACGACCGT	-0.249
GCAGGCAC	-0.29
AGGATCGC	-0.0224
CGAGTACA	0.131
ACCAACAC	0.124
CCGTCCAA	0.00895
CGGAGTGC	-0.01
GGGCGGGA	0.154
